Measurements from patent US20220273809A1, “AXL ANTIBODY-DRUG CONJUGATES FOR USE IN TREATING CANCER” (GENMAB A/S, priority 2019, published 2022).

Columns and labels:
[1] = system: BLM cell line-derived xenograft; assay: RNA sequencing of BLM xenograft tumors with human T cells; assay type: in vivo, mice; conditions: 4 mg/kg single dose, Day 7, MART-1 T cells
[2] = system: LXFA 526; assay: NSCLC PDX model, innate immune cell and cytokine profiling; assay type: in vivo, NMRI nu/nu mice; conditions: 4 mg/kg i.v., after 6 days
[3] = system: AXL-positive lung cancer PDX; assay: mRNA and protein profiling of AXL-positive lung cancer PDX tumors; assay type: in vivo, mice; conditions: tumors harvested 3 or 6 days after treatment; 4 mg/kg

IgG1-AXL-107-vcMMAE: anti-human AXL IgG1-kappa antibody conjugated, on an average of 4 cysteinyl, to MMAE via cleavable mc-val-cit-PABC linker
phenotype of infiltrated T-cells (memory vs effector gene sets) [1]: skewed towards a memory-like phenotype
tumor influx of F4/80-expressing cells (immunohistochemistry) [2]: enhanced tumor influx of F4/80-expressing cells
gene set enrichment (mRNA) of treated vs control tumors [3]: causes inflammation responses in tumor cells
